Article PMC4534774
No constants are given. Whether binding was seen depends on the method and setting. In cells and extracts the contact can be indirect. Some binding calls cover weakened binding; strength is not graded here.

Chains of the proteins cited; added tags and fusions are not shown. Lines headed by an entry give the natural chain unless they say otherwise; changes in a name come on top.
UniProt Q969H0: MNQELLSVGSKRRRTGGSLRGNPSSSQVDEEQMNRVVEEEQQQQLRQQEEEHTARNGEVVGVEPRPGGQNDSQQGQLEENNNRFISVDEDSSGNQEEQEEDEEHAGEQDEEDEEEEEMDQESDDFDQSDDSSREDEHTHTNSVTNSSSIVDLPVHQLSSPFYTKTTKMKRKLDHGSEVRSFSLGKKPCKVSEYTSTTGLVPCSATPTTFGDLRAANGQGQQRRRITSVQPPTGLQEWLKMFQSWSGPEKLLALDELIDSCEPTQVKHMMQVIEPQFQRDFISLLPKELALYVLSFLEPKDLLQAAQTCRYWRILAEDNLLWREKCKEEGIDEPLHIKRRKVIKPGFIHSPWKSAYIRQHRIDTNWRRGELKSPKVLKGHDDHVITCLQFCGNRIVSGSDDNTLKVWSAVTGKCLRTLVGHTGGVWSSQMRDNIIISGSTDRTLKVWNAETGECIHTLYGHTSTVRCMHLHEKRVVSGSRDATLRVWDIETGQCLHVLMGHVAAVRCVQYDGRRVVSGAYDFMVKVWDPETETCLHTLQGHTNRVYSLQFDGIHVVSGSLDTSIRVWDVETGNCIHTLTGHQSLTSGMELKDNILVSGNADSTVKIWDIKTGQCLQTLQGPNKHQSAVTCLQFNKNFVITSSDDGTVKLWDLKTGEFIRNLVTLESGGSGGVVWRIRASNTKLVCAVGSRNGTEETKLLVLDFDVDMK
UniProt P19838: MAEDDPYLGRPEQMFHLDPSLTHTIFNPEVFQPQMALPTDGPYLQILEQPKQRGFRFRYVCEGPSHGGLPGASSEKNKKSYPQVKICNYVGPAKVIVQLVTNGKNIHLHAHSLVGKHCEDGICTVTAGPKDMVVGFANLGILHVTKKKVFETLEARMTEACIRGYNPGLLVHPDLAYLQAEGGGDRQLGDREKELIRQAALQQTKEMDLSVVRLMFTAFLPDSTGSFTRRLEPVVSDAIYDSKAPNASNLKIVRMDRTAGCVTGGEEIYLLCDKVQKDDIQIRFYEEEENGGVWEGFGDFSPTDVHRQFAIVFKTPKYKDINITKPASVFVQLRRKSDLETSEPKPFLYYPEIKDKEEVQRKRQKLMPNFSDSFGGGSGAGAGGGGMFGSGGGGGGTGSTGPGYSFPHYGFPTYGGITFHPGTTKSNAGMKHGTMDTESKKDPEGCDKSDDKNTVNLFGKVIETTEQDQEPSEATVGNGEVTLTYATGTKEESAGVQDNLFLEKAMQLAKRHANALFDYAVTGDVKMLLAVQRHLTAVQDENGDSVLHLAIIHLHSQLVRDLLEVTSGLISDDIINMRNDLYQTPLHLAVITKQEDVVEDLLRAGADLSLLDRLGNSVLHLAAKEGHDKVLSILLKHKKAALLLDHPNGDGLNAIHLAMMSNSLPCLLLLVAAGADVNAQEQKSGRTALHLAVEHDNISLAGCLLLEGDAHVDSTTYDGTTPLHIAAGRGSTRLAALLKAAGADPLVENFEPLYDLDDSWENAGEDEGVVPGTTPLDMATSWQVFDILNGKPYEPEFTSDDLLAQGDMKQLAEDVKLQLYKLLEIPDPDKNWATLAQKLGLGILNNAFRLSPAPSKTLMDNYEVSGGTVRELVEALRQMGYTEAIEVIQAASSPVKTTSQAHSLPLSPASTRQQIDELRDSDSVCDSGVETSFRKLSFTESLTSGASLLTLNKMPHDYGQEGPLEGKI
UniProt Q04206: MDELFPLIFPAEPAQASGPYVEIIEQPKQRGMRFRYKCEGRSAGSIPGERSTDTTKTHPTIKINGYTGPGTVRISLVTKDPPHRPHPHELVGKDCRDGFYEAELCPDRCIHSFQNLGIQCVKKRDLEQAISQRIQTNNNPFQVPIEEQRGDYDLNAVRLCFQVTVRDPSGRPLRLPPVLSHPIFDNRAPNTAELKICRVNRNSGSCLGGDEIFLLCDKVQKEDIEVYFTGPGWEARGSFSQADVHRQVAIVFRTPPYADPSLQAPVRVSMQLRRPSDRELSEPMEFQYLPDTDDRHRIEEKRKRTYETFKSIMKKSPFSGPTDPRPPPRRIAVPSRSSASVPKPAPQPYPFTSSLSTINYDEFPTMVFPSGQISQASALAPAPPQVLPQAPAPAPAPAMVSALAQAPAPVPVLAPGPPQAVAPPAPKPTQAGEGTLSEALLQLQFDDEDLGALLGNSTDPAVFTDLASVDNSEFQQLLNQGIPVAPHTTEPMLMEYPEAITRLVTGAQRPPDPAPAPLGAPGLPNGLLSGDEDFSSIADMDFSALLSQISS

What was measured:
FLAG-tagged FBW7 = FLAG-tagged FBW7 (UniProt Q969H0); test: co-IP; anti-Flag (DYDDDK Tag Rabbit) pre-bound to protein A agarose, overnight immunoprecipitation from extracts of HT29 cells transfected with Flag-FBW7, with or without 1,25D; washes with 200 mM NaCl, 1% NP-40; Western blot for NF-κB1 and RELA; controls: control IgG and untransfected cells
[1] = target: T1, vitamin D receptor (human (endogenous in HT29)) (UniProt P11473); test: co-IP; anti-VDR (D-6) pre-bound to protein A agarose, overnight immunoprecipitation from extracts of HT29 cells treated with vehicle or 1,25D (100 nM) for 24 h; lysis in 20 mM Tris pH 7.5, 100 mM NaCl, 0.5% NP-40; washes with 200 mM NaCl, 1% NP-40; Western blot for NF-κB subunits
T1 sequence: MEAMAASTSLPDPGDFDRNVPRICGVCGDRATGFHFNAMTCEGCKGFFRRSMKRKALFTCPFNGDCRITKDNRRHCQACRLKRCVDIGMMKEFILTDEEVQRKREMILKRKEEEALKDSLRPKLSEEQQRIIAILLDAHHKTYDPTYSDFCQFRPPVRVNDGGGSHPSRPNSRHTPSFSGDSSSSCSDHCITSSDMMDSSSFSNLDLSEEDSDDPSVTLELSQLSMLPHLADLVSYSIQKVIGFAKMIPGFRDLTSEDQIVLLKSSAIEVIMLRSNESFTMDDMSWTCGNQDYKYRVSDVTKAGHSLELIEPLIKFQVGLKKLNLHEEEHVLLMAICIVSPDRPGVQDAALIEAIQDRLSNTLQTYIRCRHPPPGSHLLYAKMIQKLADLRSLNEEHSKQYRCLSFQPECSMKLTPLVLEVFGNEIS

Row | Substance | binding (FLAG-tagged FBW7) | binding [1]
1 | NF-κB1 p50 (from UniProt P19838 1-433) | binds | 
2 | NF-κB1 p105 (from UniProt P19838 1-968) |  | binds
3 | RELA (p65) (from UniProt Q04206 1-551) | binds | binds
